Laboratory results reported in article PMC11949059.
These are yes or no findings as the source states them, for the method shown. In cells and extracts the contact can be indirect. Some binding calls cover weakened binding; strength is not graded here.

Amino acid sequences for entries named in this document (tags omitted). A change or cut given only in a name is not applied to a line headed by its entry.
UniProt Q96PZ2: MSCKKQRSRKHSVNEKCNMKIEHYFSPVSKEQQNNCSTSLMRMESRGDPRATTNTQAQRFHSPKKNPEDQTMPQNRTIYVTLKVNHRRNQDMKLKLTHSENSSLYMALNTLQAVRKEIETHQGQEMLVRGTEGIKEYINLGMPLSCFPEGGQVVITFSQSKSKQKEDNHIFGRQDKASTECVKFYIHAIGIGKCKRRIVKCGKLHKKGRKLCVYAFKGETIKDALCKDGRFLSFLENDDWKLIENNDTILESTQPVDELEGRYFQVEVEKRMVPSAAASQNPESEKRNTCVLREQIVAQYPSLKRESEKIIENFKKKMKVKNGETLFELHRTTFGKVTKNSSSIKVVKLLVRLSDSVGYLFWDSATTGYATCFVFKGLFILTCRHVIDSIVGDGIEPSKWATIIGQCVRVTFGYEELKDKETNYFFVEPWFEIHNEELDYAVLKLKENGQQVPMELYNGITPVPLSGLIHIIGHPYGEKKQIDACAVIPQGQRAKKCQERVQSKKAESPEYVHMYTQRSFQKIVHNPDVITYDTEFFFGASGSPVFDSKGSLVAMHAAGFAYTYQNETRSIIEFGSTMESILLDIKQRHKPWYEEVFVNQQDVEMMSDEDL

Key:
[1] = target: FAM111A^WT fusion protein (human) (UniProt Q96PZ2); assay: FRET or BRET; NanoBRET in HEK293T cells (Figure 1H); NanoLuc donor and HaloTag acceptor fusions; furimazine 10 uM, 37°C; BRET ratio in milliBRET units
[2] = target: FAM111A^WT fusion protein (human) (UniProt Q96PZ2); assay: FRET or BRET; NanoBRET in HEK293T cells; NanoLuc donor and HaloTag acceptor fusions of FAM111A WT with amino-terminal tags, compared with the empty vector; data not shown

Substance | binding [1] | binding [2]
FAM111A^Y414C fusion protein (from UniProt Q96PZ2 1-611) | binds | 
FAM111A^WT fusion protein (from UniProt Q96PZ2 1-611) | binds | binds
mutant FAM111A fusion protein containing the R569H substitution (from UniProt Q96PZ2 1-611) | binds | 
mutant FAM111A fusion protein containing the S541Y substitution (from UniProt Q96PZ2 1-611) | binds | 
